Like-named read-outs stand apart in the source and are kept apart here. These are yes or no findings as the source states them, for the method shown. In cells and extracts the contact can be indirect. These calls come from enrichment with a bait or labelling near it, and not all partners need be listed.
B1: Rbfox2, mouse (protein, UniProt Q8BP71 1-449)
chain: MAEGGQAQQQPPQLGPGAAARGMKRESEVELPVPGAGADGPEPGLSKRPRTEEAADGGMQNEPLTPGYHGFPARDGQGNQEPTTTPDAMVQPFTTIPFPPPPQNGIPTEYGVPHTQDYAGQTSEHNLTLYGSTQPHGEQSSNSPSNQNGSLTQTEGGAQTDGQQSQTQSSENSESKSTPKRLHVSNIPFRFRDPDLRQMFGQFGKILDVEIIFNERGSKGFGFVTFENSADADRAREKLHGTVVEGRKIEVNNATARVMTNKKMVTPYANGWKLSPVVGAVYGPELYAASSFQADVSLGNEAAVPLSGRGGINTYIPLISLPLVPGFPYPTAATTAAAFRGAHLRGRGRTVYGAVRAVPPTAIPAYPGVVYQDGFYGADLYGGYAAYRYAQPATATAATAAAAAAAAYSDGYGRVYTADPYHALAPAASYGVGAVASLYRGGYSRFAPY
B2: Rbfox1, mouse (protein, UniProt Q9JJ43 1-396)
chain: MNCEREQLRGNQEAAAAPDTMAQPYASAQFAPPQNGIPAEYTAPHPHPAPEYTGQTTVPDHTLNLYPPTQTHSEQSADTSAQTVSGTATQTDDAAPTDGQPQTQPSENTESKSQPKRLHVSNIPFRFRDPDLRQMFGQFGKILDVEIIFNERGSKGFGFVTFENSADADRAREKLHGTVVEGRKIEVNNATARVMTNKKTVNPYTNGWKLNPVVGAVYSPDFYAGTVLLCQANQEGSSMYSGPSSLVYTSAMPGFPYPAATAAAAYRGAHLRGRGRTVYNTFRAAAPPPPIPAYGGVVYQDGFYGADIYGGYAAYRYAQPTPATAAAYSDSYGRVYAADPYHHTLAPAPTYGVGAMNAFAPLTDAKTRSHADDVGLVLSSLQASIYRGGYNRFAPY

Amino acid sequences for entries named in this document (tags omitted).
UniProt Q80U78: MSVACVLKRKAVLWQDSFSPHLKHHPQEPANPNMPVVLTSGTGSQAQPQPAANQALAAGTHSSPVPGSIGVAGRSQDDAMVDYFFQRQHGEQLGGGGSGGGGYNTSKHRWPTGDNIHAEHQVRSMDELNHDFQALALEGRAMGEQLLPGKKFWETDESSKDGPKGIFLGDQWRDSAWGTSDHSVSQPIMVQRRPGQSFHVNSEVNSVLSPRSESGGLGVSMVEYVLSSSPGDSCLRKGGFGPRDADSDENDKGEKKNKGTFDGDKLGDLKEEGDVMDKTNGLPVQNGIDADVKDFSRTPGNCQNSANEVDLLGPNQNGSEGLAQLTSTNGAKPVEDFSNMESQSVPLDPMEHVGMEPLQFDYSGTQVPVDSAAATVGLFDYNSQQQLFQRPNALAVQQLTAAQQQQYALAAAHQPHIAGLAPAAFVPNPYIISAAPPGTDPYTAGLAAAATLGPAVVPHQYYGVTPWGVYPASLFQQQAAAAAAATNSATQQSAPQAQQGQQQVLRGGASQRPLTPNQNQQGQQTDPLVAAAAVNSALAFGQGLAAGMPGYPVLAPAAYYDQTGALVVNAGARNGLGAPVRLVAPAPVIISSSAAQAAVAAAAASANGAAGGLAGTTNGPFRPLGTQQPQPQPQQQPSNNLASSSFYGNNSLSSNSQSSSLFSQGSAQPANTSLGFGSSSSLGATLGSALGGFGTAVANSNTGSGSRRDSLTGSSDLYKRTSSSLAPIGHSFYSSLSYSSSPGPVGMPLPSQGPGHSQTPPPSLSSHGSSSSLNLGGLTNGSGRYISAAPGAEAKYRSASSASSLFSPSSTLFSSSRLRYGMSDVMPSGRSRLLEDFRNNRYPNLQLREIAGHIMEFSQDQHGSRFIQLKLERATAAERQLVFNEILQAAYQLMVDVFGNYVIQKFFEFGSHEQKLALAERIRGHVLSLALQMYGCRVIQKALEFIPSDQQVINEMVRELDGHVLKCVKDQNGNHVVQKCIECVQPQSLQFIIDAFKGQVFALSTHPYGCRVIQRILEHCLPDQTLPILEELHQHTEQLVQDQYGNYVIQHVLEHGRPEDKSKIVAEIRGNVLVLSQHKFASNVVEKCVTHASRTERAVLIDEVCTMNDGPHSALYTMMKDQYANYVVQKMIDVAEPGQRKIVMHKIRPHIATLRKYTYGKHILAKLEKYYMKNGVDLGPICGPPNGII
UniProt B2RQC6: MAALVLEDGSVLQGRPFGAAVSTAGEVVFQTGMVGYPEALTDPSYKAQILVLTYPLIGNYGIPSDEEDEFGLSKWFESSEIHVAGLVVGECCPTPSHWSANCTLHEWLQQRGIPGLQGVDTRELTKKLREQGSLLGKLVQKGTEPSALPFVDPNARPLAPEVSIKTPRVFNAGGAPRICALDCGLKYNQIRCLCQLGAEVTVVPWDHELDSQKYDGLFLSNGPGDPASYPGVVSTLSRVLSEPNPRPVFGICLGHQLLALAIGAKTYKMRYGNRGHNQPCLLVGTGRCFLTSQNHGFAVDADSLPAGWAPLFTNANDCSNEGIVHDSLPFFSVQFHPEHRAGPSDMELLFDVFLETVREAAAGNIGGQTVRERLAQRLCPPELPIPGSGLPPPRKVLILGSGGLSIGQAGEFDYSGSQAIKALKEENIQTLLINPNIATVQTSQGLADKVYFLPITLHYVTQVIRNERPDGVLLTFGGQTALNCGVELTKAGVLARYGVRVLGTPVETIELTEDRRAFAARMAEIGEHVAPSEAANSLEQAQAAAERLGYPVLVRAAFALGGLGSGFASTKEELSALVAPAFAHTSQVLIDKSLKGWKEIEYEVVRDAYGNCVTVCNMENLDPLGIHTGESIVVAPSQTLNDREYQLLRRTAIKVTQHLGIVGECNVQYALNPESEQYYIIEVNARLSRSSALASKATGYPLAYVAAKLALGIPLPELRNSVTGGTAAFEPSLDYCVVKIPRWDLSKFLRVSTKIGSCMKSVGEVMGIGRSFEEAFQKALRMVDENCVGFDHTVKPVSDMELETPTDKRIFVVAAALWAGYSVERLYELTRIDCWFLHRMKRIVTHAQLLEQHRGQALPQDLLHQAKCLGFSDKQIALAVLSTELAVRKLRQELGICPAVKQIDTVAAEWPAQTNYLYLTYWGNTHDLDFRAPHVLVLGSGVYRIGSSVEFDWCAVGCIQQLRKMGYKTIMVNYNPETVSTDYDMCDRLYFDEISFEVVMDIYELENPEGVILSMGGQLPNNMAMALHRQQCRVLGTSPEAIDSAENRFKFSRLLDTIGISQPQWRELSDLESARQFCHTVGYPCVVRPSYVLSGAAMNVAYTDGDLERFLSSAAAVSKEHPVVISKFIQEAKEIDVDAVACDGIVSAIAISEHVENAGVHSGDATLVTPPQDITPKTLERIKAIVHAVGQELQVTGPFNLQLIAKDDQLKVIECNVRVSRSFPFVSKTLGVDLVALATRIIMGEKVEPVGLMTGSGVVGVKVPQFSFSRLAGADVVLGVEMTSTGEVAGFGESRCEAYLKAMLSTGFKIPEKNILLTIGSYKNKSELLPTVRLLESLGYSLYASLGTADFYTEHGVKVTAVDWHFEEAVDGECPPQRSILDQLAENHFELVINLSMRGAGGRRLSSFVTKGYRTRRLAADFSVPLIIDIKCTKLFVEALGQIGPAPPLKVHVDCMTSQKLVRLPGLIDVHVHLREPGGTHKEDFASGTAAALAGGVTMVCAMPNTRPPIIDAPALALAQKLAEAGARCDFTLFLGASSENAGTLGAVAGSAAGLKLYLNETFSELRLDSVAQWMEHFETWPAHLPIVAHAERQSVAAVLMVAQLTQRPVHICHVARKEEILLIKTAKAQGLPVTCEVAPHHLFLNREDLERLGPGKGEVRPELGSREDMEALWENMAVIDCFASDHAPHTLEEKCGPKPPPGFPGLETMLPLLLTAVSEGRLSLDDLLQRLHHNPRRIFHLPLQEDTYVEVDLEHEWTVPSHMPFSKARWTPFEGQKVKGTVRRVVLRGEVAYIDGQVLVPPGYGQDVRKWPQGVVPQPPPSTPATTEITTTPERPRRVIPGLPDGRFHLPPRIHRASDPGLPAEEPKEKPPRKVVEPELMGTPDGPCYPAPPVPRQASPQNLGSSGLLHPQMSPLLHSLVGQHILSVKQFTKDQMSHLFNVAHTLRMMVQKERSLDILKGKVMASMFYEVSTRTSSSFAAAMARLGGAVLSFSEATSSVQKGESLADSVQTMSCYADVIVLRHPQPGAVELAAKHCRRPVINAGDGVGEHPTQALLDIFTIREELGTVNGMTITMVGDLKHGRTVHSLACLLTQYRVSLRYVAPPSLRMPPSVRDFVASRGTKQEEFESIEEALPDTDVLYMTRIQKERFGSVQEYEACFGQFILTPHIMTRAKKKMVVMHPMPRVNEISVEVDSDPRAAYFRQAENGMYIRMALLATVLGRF
UniProt Q8BH15: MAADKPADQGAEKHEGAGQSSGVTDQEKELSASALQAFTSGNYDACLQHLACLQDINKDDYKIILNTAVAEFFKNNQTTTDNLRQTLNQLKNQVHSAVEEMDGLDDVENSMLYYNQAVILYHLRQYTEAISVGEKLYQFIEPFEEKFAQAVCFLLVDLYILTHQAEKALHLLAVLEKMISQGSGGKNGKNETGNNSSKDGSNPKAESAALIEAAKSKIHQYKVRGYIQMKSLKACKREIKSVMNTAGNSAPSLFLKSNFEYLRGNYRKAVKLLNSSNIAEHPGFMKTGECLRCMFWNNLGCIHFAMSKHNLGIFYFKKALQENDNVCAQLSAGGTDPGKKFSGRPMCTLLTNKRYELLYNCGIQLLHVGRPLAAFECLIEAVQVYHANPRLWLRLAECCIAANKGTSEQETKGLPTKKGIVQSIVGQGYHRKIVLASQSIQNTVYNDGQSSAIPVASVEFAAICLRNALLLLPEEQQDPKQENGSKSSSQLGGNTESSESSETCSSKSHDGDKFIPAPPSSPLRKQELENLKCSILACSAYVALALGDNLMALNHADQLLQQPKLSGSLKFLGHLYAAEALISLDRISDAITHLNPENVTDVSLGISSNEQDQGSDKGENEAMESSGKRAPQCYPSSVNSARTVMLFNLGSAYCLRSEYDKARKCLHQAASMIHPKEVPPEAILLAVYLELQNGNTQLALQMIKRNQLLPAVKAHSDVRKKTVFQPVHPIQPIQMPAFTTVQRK
UniProt Q8JZQ9: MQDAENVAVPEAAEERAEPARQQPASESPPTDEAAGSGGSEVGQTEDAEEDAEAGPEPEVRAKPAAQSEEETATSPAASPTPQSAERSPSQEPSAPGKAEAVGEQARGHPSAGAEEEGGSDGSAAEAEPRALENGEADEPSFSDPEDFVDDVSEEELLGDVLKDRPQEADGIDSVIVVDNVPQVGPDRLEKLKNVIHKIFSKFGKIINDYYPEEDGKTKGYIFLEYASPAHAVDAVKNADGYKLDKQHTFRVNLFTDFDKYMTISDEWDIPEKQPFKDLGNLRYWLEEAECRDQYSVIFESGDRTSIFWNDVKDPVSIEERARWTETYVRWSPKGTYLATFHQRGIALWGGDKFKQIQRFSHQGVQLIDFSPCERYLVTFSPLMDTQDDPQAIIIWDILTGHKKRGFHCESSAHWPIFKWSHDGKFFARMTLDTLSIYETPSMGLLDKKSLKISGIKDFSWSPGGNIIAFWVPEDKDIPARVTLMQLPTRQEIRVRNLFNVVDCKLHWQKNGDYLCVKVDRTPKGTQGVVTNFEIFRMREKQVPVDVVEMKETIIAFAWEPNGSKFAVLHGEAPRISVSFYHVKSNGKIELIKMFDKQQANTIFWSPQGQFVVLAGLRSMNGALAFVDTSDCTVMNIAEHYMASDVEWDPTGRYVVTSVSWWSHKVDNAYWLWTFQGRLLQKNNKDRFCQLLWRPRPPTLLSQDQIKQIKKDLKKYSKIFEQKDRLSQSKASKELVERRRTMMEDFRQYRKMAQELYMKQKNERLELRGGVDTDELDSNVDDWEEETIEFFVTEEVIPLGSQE
UniProt Q9R1K5: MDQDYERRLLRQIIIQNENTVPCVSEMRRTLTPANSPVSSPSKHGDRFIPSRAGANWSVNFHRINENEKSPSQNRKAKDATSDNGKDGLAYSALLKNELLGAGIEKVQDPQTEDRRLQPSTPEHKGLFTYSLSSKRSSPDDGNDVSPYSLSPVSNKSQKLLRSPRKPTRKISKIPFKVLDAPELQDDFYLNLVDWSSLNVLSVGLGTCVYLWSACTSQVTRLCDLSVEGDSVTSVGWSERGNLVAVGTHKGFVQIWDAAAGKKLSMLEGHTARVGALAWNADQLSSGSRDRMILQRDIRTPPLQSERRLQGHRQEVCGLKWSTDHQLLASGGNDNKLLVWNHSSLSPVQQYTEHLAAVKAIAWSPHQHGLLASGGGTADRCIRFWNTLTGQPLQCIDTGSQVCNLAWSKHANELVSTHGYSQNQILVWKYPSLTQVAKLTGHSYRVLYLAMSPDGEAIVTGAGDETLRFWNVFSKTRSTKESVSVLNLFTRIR
UniProt Q80U58: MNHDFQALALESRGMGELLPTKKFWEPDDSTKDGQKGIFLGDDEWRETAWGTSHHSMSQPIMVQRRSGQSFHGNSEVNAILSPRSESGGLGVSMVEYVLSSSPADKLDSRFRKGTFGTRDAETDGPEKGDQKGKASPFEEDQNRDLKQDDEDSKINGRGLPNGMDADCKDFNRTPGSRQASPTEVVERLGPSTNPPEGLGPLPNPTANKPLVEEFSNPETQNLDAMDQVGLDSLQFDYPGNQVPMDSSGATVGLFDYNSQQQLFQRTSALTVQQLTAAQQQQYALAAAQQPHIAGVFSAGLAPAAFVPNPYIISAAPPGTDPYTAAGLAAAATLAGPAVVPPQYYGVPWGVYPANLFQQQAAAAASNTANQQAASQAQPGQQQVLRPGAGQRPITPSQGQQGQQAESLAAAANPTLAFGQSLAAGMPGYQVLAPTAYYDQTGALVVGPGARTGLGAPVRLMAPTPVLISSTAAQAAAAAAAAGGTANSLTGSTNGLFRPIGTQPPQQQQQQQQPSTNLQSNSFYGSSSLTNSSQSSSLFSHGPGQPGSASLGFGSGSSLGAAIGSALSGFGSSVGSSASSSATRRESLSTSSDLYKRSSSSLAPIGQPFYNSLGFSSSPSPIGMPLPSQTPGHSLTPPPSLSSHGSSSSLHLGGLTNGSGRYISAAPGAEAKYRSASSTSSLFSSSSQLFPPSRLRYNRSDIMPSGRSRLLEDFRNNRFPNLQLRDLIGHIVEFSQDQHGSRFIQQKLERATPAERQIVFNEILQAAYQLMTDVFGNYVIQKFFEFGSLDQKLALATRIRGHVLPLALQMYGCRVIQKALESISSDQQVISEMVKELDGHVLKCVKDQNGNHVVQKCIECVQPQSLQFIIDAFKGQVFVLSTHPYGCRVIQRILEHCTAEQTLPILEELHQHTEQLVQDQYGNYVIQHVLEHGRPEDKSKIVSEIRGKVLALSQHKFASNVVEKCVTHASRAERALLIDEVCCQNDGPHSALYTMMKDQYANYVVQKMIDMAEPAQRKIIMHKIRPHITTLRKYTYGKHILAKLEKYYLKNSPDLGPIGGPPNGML

What was measured:
Assay in all cases: affinity purification with mass spectrometry
[1] = molecular target: Pumilio1 (Pum1), mouse (mouse (endogenous in brain)) (UniProt Q80U78)
[2] = molecular target: Pumilio1 (Pum1), mouse (mouse (endogenous in brain)) (UniProt Q80U78); remark: listed apart in the source
[3] = molecular target: Pumilio1 (Pum1), mouse (mouse (endogenous in brain)) (UniProt Q80U78); remark: listed apart in the source
[4] = molecular target: Pumilio1 (Pum1), mouse (mouse (endogenous in brain)) (UniProt Q80U78); remark: listed apart in the source

Row | Molecule | binding [1] | other results
1 | Ago2, mouse (from UniProt Q8CJG0 1-860) | binds | –
2 | Anapc1, mouse (from UniProt P53995 1-1944) | binds | –
3 | Cad, mouse (from UniProt B2RQC6 1-2225) | binds | –
4 | Cnot1, mouse (from UniProt Q6ZQ08 1-2375) | binds | binding [2]: binds
5 | Cnot2, mouse (from UniProt Q8C5L3 1-540) | binds | –
6 | Cnot10, mouse (from UniProt Q8BH15 1-744) | binds | –
7 | Eif3b, mouse (from UniProt Q8JZQ9 1-803) | binds | binding [3]: binds
8 | Fzr1, mouse (from UniProt Q9R1K5 1-493) | binds | –
9 | Pum2, mouse (from UniProt Q80U58 1-1066) | binds | –
10 | Rptor, mouse (from UniProt Q8K4Q0 1-1335) | binds | –
11 | B1 | – | binding [3]: binds; binding [4]: binds
12 | B2 | – | binding [4]: binds
